The record followed here is paper PMC4218966.

Sequences of proteins named here, by UniProt entry; tags and fusion partners are left off.
UniProt Q8VIM5: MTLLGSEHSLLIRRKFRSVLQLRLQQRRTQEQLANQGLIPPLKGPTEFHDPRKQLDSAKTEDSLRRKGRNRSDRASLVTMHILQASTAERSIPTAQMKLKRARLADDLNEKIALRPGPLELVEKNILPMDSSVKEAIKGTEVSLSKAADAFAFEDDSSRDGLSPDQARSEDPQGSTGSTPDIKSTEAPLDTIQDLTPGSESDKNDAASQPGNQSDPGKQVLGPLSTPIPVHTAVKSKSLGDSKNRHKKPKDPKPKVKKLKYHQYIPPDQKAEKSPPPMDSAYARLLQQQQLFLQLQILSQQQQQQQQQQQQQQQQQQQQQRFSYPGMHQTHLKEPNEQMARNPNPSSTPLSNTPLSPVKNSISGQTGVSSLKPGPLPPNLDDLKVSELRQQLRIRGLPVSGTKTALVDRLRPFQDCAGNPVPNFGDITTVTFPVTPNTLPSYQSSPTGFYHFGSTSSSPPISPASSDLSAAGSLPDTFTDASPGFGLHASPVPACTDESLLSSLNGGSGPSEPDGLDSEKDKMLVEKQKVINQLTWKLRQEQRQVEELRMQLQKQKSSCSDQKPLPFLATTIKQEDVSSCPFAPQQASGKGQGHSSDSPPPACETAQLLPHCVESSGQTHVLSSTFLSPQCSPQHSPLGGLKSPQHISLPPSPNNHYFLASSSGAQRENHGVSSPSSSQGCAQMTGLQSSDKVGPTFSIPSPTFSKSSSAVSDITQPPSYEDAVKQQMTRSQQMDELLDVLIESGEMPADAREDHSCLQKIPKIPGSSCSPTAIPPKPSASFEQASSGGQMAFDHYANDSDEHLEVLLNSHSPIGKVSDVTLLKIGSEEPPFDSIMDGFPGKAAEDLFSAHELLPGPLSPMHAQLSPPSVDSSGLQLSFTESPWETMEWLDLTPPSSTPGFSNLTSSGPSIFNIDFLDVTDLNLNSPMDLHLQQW

For this assay, the target named is myocardin (UniProt Q8VIM5). The assay can be described thus: co-IP; immunoprecipitation in cultured VSMCs; told only in the discussion, no figure and no methods for this experiment.

No constants are given. Whether binding was seen depends on the method and setting. Binding seen in cells or lysates may run through a third protein.

B1: Interferon regulatory factor 9 (protein, UniProt Q61179 1-399)
chain: MASGKVRCTRKLRSWIVEQVESGHFPGVCWDDAAKTMFRIPWKHAGKQDFREDQDAAIFKAWALFKEKHKDGDIGHPAVWKTRLRCALNKSSEFEEVPERGRMDVAEPYKVYRILPAGTLPNQPRNQKSPCKRSISCVSPEREENMENGRTNGVVNHSDSGSNIGGGGNGSNRSDSNSNCNSELEEGAGTTEATIREDPVFLEHQLPLNSDYSLLLTFIYGGRVVGKTQVHSLDCRLVAERSDSESSMEQVEFPKPDPLEPTQHLLNQLDRGVLVASNSRGLFVQRLCPIPISWNAPEAPPGPGPHLLPSNKCVELFKTTYFCRDLAQYFQGQGPPPKFQATLHFWEESPGSSHSQENLITVQMEQAFARHLLEKIPEEEKAALFLLQHTEQSPSALGH
For B1, the binding entry is “no binding”.
